This passage reports binding results from article PMC5131268.

These are yes or no findings as the source states them, for the method shown. In cells and extracts the contact can be indirect. A result given as binding can be weak or reduced; the word gives no strength.

The target of the assay is Glutathione-S-transferases mu 2 (GSTM2) (pig). Briefly: co-IP; ST cells transfected with GFP-pcDNA3.1-GSTM2 for 24 h; lysate supernatant incubated with 2 ug anti-GSTM2 (IgG as control) at 4 °C for 5 h, Protein A/G beads, washed 5 times with PBS containing 0.05% Tween 20; western blotting. For orientation: In western blotting, separated proteins are transferred to a membrane and probed.

B1: STAT1 (protein, UniProt Q764M5 1-753)
chain: MSQWYELQQLDSKFLEQVHQLYDDSFPMEIRQYLAQWLENQDWEHAANDVSFATIRFHDLLSQLDDQYSRFSLENNFLLQHNIRKSKRNLQDNFQEDPIQMSMIICNCLKEERKILENAQRFNQTQSGNIQSTVMLDKHKELDSKVRNVKDKVMCIEHEIKTLEDLQDEYDFKCKTLQNREHDTNGVAKNDQKQEQMLLQKMYLMLDNKRKEVVHKIIELLNVTELTQKALINDELVEWKRRQQSACIGGPPNACLDQLQNWFTIVAESLQQVRQQLKKLEELEQKYTYEHDPITKNKQALWDRTFSLFQQLIQSSFVVERQPCMPTHPQRPLVLKTGVQFTVKLRLLVKLQELNYNLKVKVLFDKDVSERNTVKGFRKFNILGTHTKVMNMEESTNGSLAAEFRHLQLKEQKNAGARTNEGPLIVTEELHSLSFETQLCQPGLVIDLETTSLPVVVISNVSQLPSGWASILWYNMLVAEPRNLSFFLNPPCARWSQLSEVLSWQFSSVTKRGLNVDQLNMLGEKLLGPTAGPDGLIPWTRFCKENINDKNFPFWLWIESILELIKKHLLSLWNDGCIVGFISKERERALLKDQQPGTFLLRFSESCREGAITFTWVERSQNGGEPYFHAVEPYTKKELSAVTFPDIIRNYKVMAAENIPENPLKYLYPNIDKDHAFGKYYSRPKEAPEPMELDGPKGTGYIKTELISVSEVHPSRLQTTDNLLPMSPEEFDEVSRMVGPVEFDMVSMTRGRS
Turning to B1, the binding entry is given as “binds”.
